{
  "source": "PubChem BioAssay AID588497",
  "about": "(NMMLSC, 2011)",
  "note": "About 780 (0.22%) of roughly 360,000 compounds were called active. Inconclusive results, whose numbers are uncertain, are shown with a selection of clear calls. Rule as the data show it: active = inhibition above about 35% (passing the limit was not always enough); inconclusive = no clear call, values can overlap the other calls.",
  "data": [
    {"test_system": "Botulinum neurotoxin type F light chain protease (Clostridium botulinum)", "assay": "BoNT/F light chain protease inhibitors, primary screen, biochemical, flow cytometry, MLPCN library (AID 588497); also: plate controls were buffer without enzyme for full effect and enzyme alone for no effect", "conditions": "Multiplex microsphere protease cleavage assay, at 10 µM, active compounds read high", "values": [
      {"smiles": "O=C(Cc1ccc(Cl)cc1)NNC(=S)NC(=O)c1cccs1", "inhibition": "inconclusive: 40.9%"},
      {"smiles": "[S-]c1nnc(-c2ccc(Br)cc2)n1-c1ccccc1.[Zn+2]", "inhibition": "inconclusive: -30.4%"},
      {"smiles": "CN(C)c1ccc(CC(=O)N2CCCCC2c2cc(C(=O)Nc3ccccc3Cl)no2)cc1", "note": "(stereo not drawn)", "inhibition": "inactive: -3.1%"},
      {"smiles": "Cc1ccc(C(=O)N(CC(=O)NC2CCCC2)Cc2cccs2)s1", "inhibition": "inconclusive: -26.6%"},
      {"smiles": "Cc1nc2cccc(C(=O)Oc3ccc([N+](=O)[O-])cc3)c2o1", "inhibition": "inactive: -0.1%"},
      {"smiles": "CCOc1ccc(/C=N/NC(=O)Cn2ccnc2C)cc1", "inhibition": "inconclusive: -51.5%"},
      {"smiles": "O=C(CCNS(=O)(=O)c1ccc2[nH]c(=O)oc2c1)Nc1ccccc1", "inhibition": "inactive: 13.3%"},
      {"smiles": "CN(/N=C/c1ccc(Cl)cc1)c1ncc(Cl)cc1C(F)(F)F", "inhibition": "inconclusive: -14.4%"},
      {"smiles": "CCn1c2ccccc2c2nnc(SCC(=O)NC(CC(C)C)C(=O)OC)nc21", "note": "(stereo not drawn)", "inhibition": "inconclusive: -17.2%"},
      {"smiles": "CCOC(=O)C1(CCOc2ccccc2)CCN(Cc2ccccc2O)CC1", "inhibition": "inconclusive: 13%"},
      {"smiles": "Cc1ccc(NC(=O)/C=C2\\NC(=O)CS2)cc1", "inhibition": "inactive: 0.8%"},
      {"smiles": "O=C(NCCCN1CCOCC1)c1cccc(NC(=O)c2ccccc2)c1", "inhibition": "inconclusive: -17.8%"},
      {"smiles": "CC(C)CSc1nc2ccccc2[nH]1", "inhibition": "inactive: 3.2%"},
      {"smiles": "CCN(CC)S(=O)(=O)c1ccc(Oc2ccc(S(=O)(=O)N(CC)CC)cc2)cc1", "inhibition": "inconclusive: -2.7%"},
      {"smiles": "COc1cc(C(=O)O)ccc1OCc1ccncc1", "inhibition": "inconclusive: -22.7%"},
      {"smiles": "CCOc1ccc(OCCOCCN2CCCC2)cc1", "inhibition": "inconclusive: -26.9%"},
      {"smiles": "O=C1NN(c2ccccc2)C(=O)/C1=C/c1ccc(Sc2cccc3ccccc23)o1", "inhibition": "inactive: -15.9%"},
      {"smiles": "CC(C)(C)c1ccc(O)c(N=Cc2c(O)ccc3ccccc23)c1", "inhibition": "inconclusive: 18.3%"},
      {"smiles": "O=c1ccc2c(-c3ccccc3)c3ccc(O)cc3oc-2c1", "inhibition": "active: 87.8%"},
      {"smiles": "Cc1cccc2cc(/C=C3\\N=C(c4ccccc4)OC3=O)c(N3CCOCC3)nc12", "inhibition": "active: 40.7%"},
      {"smiles": "CC/C(=N/NC(=O)c1ccccc1O)c1c(C)[nH]n(-c2ccccc2)c1=O", "inhibition": "inconclusive: 12.3%"},
      {"smiles": "CCOC(=O)NN1C(=O)c2ccccc2NC1c1ccccn1", "note": "(stereo not drawn)", "inhibition": "inactive: -6.1%"},
      {"smiles": "CC(=O)COc1ccc(-c2csnn2)cc1", "inhibition": "inconclusive: -1.7%"},
      {"smiles": "CCc1nc2ccc(C(=O)NCCc3ccccn3)cn2c1N(CCC(C)C)CCN(C)C", "inhibition": "inactive: -6.9%"},
      {"smiles": "COc1ccc(CN(Cc2cccn2C)S(=O)(=O)c2ccc(C)cc2)cc1", "inhibition": "inconclusive: -9.2%"},
      {"smiles": "CC(C)COC(=O)N1C[C@H](O)C[C@H]1C(=O)Nc1ccc(Cl)cc1", "inhibition": "inconclusive: -27%"},
      {"smiles": "COc1ccc(CNc2ncc(-c3ccccc3)n2C)cc1", "inhibition": "inconclusive: -20.5%"},
      {"smiles": "CN(C)c1ccc(C2/C(=C(/O)c3ccccc3)C(=O)C(=O)N2CCCC(=O)O)cc1", "note": "(stereo not drawn)", "inhibition": "inactive: 1.8%"},
      {"smiles": "CCCCn1ccnc1C", "inhibition": "inconclusive: 10.1%"},
      {"smiles": "CC(C)CNC(=S)N1CCN(c2nc(-c3ccc(Cl)cc3)cs2)CC1", "inhibition": "inconclusive: 14%"},
      {"smiles": "Cc1cc(C)cc(NC(=S)N2CCN(c3ccccn3)CC2)c1", "inhibition": "inconclusive: -48.8%"},
      {"smiles": "CN(C)CCCOC(=O)COc1ccc(Br)cc1", "inhibition": "inconclusive: 57.7%"},
      {"smiles": "O=C(NCCc1ccccn1)C1CC(=O)N(Cc2ccccc2Cl)C1", "note": "(stereo not drawn)", "inhibition": "inactive: 0.2%"},
      {"smiles": "CN1C(=O)CC(N2CCN(CC(=O)N3CCCC3)CC2)C1=O", "note": "(stereo not drawn)", "inhibition": "inactive: 0.7%"},
      {"smiles": "Cc1cc(C)c2c(N)c(C(=O)N/N=C/c3ccccc3)sc2n1", "inhibition": "inconclusive: 5%"},
      {"smiles": "Clc1cccc(Cl)c1CN1CCN(c2ncccn2)CC1", "inhibition": "inconclusive: 4.4%"},
      {"smiles": "CC(C)[C@@H]1CC[C@@H](C)C[C@H]1OC(=O)C[n+]1cc(-c2ccc(Cl)cc2)n2c1CCCCC2", "inhibition": "inconclusive: 90.9%"},
      {"smiles": "O=C(CSc1ccccn1)N1CCN(c2ncc(C(F)(F)F)cc2Cl)CC1", "inhibition": "inconclusive: -22.1%"},
      {"smiles": "COc1cc2c(c(OC)c1OC)-c1ccc(SC)c(=O)cc1C(NC=O)CC2", "note": "(stereo not drawn)", "inhibition": "inactive: -3.4%"},
      {"smiles": "O=C(Nc1ccc(F)cc1F)Nc1ccc(F)cc1F", "inhibition": "inactive: -16.3%"},
      {"smiles": "CCSc1nnc([C@H](C)NC(=O)OC(C)(C)C)o1", "inhibition": "inconclusive: -5.8%"},
      {"smiles": "C=CCNC(=S)Nc1ccccc1-c1nnc2n1CCCCC2", "inhibition": "inactive: -1.5%"},
      {"smiles": "Cc1cc(C)c(NC(=O)Cn2ncc3ccccc32)c(C)c1", "inhibition": "inconclusive: -25.1%"},
      {"smiles": "COC(=O)c1cc2c(s1)-c1ccc(OC)cc1CC2", "inhibition": "inconclusive: 19.7%"},
      {"smiles": "O=C(COC(=O)C1CC1)Nc1ccc(Cl)cc1Cl", "inhibition": "inactive: -1.2%"},
      {"smiles": "COCCNC(=O)c1cccc(OC2CCN(Cc3cccc(SC)c3)CC2)c1", "inhibition": "inconclusive: -31.6%"},
      {"smiles": "Fc1ccc(-c2ncc3ccccn23)cc1", "inhibition": "inactive: -0.9%"},
      {"smiles": "Cn1c(SCc2ccc(F)cc2)nnc1-c1cnccn1", "inhibition": "inconclusive: 17.3%"},
      {"smiles": "O=S1(=O)CCC(NC(=S)Nc2ccccc2)C1", "note": "(stereo not drawn)", "inhibition": "inconclusive: 21.7%"},
      {"smiles": "O=C(N/N=C/C(Br)=C/c1ccccc1)c1ccccc1[N+](=O)[O-]", "inhibition": "inconclusive: 8.9%"},
      {"smiles": "Cc1ccc(NC(=O)CN(C)C(=O)c2ccc(-n3cncn3)c([N+](=O)[O-])c2)cc1", "inhibition": "inconclusive: 12.1%"},
      {"smiles": "CC(C(=O)NC1=NCCS1)N1C(=O)c2ccccc2C1=O", "note": "(stereo not drawn)", "inhibition": "inactive: -7.3%"},
      {"smiles": "CCOC(=O)N(Cc1ccccc1)Cc1ccc(C(=O)N[C@@H](Cc2ccccc2)C(=O)O)cc1", "inhibition": "inconclusive: -210%"},
      {"smiles": "NS(=O)(=O)c1cc(C(=O)OCCNC(=O)c2ccccc2)c(Cl)cc1Cl", "inhibition": "inconclusive: 20.1%"},
      {"smiles": "O=C1CSC(c2cccc([N+](=O)[O-])c2)N1CCc1ccccc1", "note": "(stereo not drawn)", "inhibition": "inconclusive: 11.7%"},
      {"smiles": "O=C(N/N=C/c1cc(Br)cs1)c1c[nH]c2ccccc12", "inhibition": "inconclusive: -12.6%"},
      {"smiles": "CCN(CC)c1ccc2c(O)cc(=O)oc2c1", "inhibition": "inactive: 1.1%"},
      {"smiles": "CSc1ccc(C(c2c(C)[nH][nH]c2=O)c2c(C)[nH][nH]c2=O)cc1", "inhibition": "inconclusive: -10.5%"},
      {"smiles": "Cc1cc(=O)oc2cc(NC(=O)C(C)Oc3ccccc3)ccc12", "note": "(stereo not drawn)", "inhibition": "inconclusive: -7.6%"},
      {"smiles": "COC(=O)c1ccccc1NS(=O)(=O)c1ccc2c(c1)oc(=O)n2C", "inhibition": "inconclusive: -25.4%"},
      {"smiles": "O=[N+]([O-])c1cccc(S(=O)(=O)NCc2ccccn2)c1", "inhibition": "inconclusive: 23.9%"},
      {"smiles": "Cc1nc2ncccn2c1-c1csc(Nc2ccccc2)n1", "inhibition": "active: 37.7%"},
      {"smiles": "O=C1CCC(C(=O)OCc2nnc(-c3ccccc3)o2)=NN1", "inhibition": "inactive: -4%"},
      {"smiles": "COc1cc(CNCc2ccc(SC)cc2)cc(OC)c1", "inhibition": "inactive: -5%"},
      {"smiles": "CC1S/C(=N/N=C/c2ccco2)N(Cc2ccc(F)cc2)C1=O", "note": "(stereo not drawn)", "inhibition": "inconclusive: -84.3%"},
      {"smiles": "Cc1ccc(S(=O)(=O)N2CCN(C)CC2)cc1", "inhibition": "inconclusive: 46.9%"},
      {"smiles": "Cc1cc(=O)[nH]c(-c2ccc(Cl)cc2)n1", "inhibition": "inconclusive: -6.1%"},
      {"smiles": "COCCNc1oc(Cc2cccc3ccccc23)nc1C#N", "inhibition": "inconclusive: -4.3%"},
      {"smiles": "COc1cc(NC(=S)N2CCN(CCO)CC2)cc(OC)c1", "inhibition": "inconclusive: 22.6%"},
      {"smiles": "Cc1cccc(-c2nc(C#N)c(NCC3CCCO3)o2)c1", "note": "(stereo not drawn)", "inhibition": "inconclusive: -2.7%"},
      {"smiles": "CC(C)CN(C(=O)COC(=O)CNC(=O)c1ccccc1F)c1c(N)n(Cc2ccccc2)c(=O)[nH]c1=O", "inhibition": "inconclusive: 7.1%"},
      {"smiles": "Cc1ccccc1N=C1NC(=O)/C(=C/c2cccnc2)S1", "inhibition": "inconclusive: -22.1%"},
      {"smiles": "Cc1cccc(NC(=O)c2ccc(NCC3CCCO3)c([N+](=O)[O-])c2)n1", "note": "(stereo not drawn)", "inhibition": "inactive: -4.2%"},
      {"smiles": "COc1ccc(CCCc2nnc(SCC(=O)Nc3nc(C)cs3)n2C)cc1", "inhibition": "active: 35.1%"},
      {"smiles": "COc1ccc2c(=O)c3c(=O)n(CCc4ccccc4)c(C(C)C)nc3oc2c1", "inhibition": "inconclusive: 13.1%"},
      {"smiles": "COC(=O)c1ccccc1NC(=O)C(=O)NCC1CCCO1", "note": "(stereo not drawn)", "inhibition": "inactive: -2.5%"},
      {"smiles": "Cc1ccc(N(C)C(=O)c2cnn(-c3ccccc3)c2C)c(C)c1", "inhibition": "inconclusive: -7.6%"},
      {"smiles": "CN(/N=C/c1ccc(-c2ccc([N+](=O)[O-])cc2)o1)c1ccccc1", "inhibition": "inconclusive: 34.8%"},
      {"smiles": "CC(C)(C)C(O)C(Cc1ccccc1Cl)n1cncn1", "note": "(stereo not drawn)", "inhibition": "inactive: 30.8%"},
      {"smiles": "Cc1cc(C(=O)Nc2nccs2)c2cc(F)ccc2n1", "inhibition": "inconclusive: 16.1%"},
      {"smiles": "COc1ccc(OC)c2c(C)c(C)[nH]c12", "inhibition": "inconclusive: 7.6%"},
      {"smiles": "COc1cc(C2/C(=C(\\O)c3ccc4c(c3)CC(C)O4)C(=O)C(=O)N2CCCn2ccnc2)cc(OC)c1OC", "note": "(stereo not drawn)", "inhibition": "inactive: -4.7%"},
      {"smiles": "Cc1onc(-c2c(Cl)cccc2Cl)c1C(=O)N=C(N)N1CCCC1", "inhibition": "inconclusive: 51.8%"},
      {"smiles": "CCc1ccc(Nc2ncc3c(n2)CC(C)(C)CC3=O)cc1", "inhibition": "inconclusive: 61.1%"},
      {"smiles": "COCCCN1C(=O)c2[nH]nc(-c3cc(C)cc(C)c3O)c2C1c1ccc(O)c(OC)c1", "note": "(stereo not drawn)", "inhibition": "inconclusive: 16.3%"},
      {"smiles": "COC(=O)NN1C(=O)C(c2ccccc2)=C(c2ccc(Cl)cc2)C1=O", "inhibition": "inconclusive: 16.3%"},
      {"smiles": "CCOC(=O)C1CCCN(C(=O)c2cc(CN3C(=O)c4ccccc4C3=O)ccc2OC)C1", "note": "(stereo not drawn)", "inhibition": "inconclusive: -8.3%"},
      {"smiles": "O=C(Nc1cccc(C(F)(F)F)c1)c1cccnc1NCCO", "inhibition": "inconclusive: -25%"},
      {"smiles": "Cc1onc(-c2ccccc2Cl)c1C(=O)NCCn1c(C)cc2ccccc21", "inhibition": "inactive: -150%"},
      {"smiles": "Cc1cc2c(NC(=O)Nc3ccc(C(F)(F)F)cc3)cccc2nn1", "inhibition": "inconclusive: 53.4%"},
      {"smiles": "O=C(NC1CC2CCCC(C1)N2)c1ccccc1", "note": "(stereo not drawn)", "inhibition": "inconclusive: 26.3%"},
      {"smiles": "Cc1nc(-c2ccc(F)cc2)c(CC(=O)Nc2cc(S(=O)(=O)N3CCCCC3)ccc2C)s1", "inhibition": "inconclusive: 13.1%"},
      {"smiles": "Cc1cc(C(=O)NNc2c(Cl)cccc2Cl)n(C(C)(C)C)n1", "inhibition": "inconclusive: -46.8%"}
    ]}
  ]
}
